Reference: the supplement of paper PMC4635364
Counter-ions that a name gives are not always drawn. Some of the results follow. Single values are uncertain here, since repeats match poorly.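 ReNCell VM, a human fetal ventral-midbrain neural progenitor line, was differentiated without mitogens. Blinded raters scored images stained for doublecortin (early neurons) or tyrosine hydroxylase (dopaminergic neurons) against untreated wells (0 = no change). Scores were averaged across repeats and both raters, and compounds averaging 2 or more were selected as hits for retesting.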

Tests used:
ReNCell VM [1] = experiment: neuronal differentiation score (DCX+ cell fraction vs untreated, manual image score) (score (-3 to 3)); higher = more neuronal differentiation; conditions: 2 uM, 2 weeks
ReNCell VM [2] = experiment: dopaminergic neuron differentiation score (TH+ cell fraction vs untreated, manual image score) (score (0 to 3)); higher = more TH+ dopaminergic neuron differentiation; conditions: 2 uM, 4 weeks, BDNF 10 ng/ml + GDNF 10 ng/ml

O=c1c2ccccc2nc2n1CCc1c-2[nH]c2ccccc12 [rutaecarpine]
neuronal differentiation score (ReNCell VM [1]; library: Natural): inactive: 0 | dopaminergic neuron differentiation score (ReNCell VM [2]; library: Natural): inactive: 0

COc1ccc(/C=C/C(=O)O)cc1OC
neuronal differentiation score (ReNCell VM [1]; library: Spectrum): inactive: 0 | dopaminergic neuron differentiation score (ReNCell VM [2]; library: Spectrum): inactive: 0

CC(C)NCC(O)COc1ccc(COCCOC(C)C)cc1 (centres undefined) [Bisoprolol hemifumarate salt]
neuronal differentiation score (ReNCell VM [1]; library: LOPAC): inactive: 0 | dopaminergic neuron differentiation score (ReNCell VM [2]; library: LOPAC): inactive: 0

C[C@H](NC[C@H](O)CP(=O)(O)CC1CCCCC1)c1ccc(Cl)c(Cl)c1
neuronal differentiation score (ReNCell VM [1]; library: Tocriscreen): inactive: 0 | dopaminergic neuron differentiation score (ReNCell VM [2]; library: Tocriscreen): inactive: 0

NC12CC3CC(CC(C3)C1)C2 [Amantadine hydrochloride]
neuronal differentiation score (ReNCell VM [1]; library: LOPAC): inactive: 0 | dopaminergic neuron differentiation score (ReNCell VM [2]; library: LOPAC): inactive: 0

COc1[nH]c2ccc(F)cc2c1C(=O)OCC1CCN(CCNS(C)(=O)=O)CC1.NS(=O)(=O)O
neuronal differentiation score (ReNCell VM [1]; library: Tocriscreen): inactive: 0 | dopaminergic neuron differentiation score (ReNCell VM [2]; library: Tocriscreen): inactive: 0

COc1ccc(Nc2nccc(NCCO)n2)cc1 [Cardiogenol C hydrochloride]
neuronal differentiation score (ReNCell VM [1]; library: Tocriscreen): inactive: 0 | dopaminergic neuron differentiation score (ReNCell VM [2]; library: Tocriscreen): inactive: 1

COC(=O)Nc1nc2cc(C(=O)c3ccccc3)ccc2[nH]1 [Mebendazole]
neuronal differentiation score (ReNCell VM [1]; library: Prestwick): inactive: 0 | dopaminergic neuron differentiation score (ReNCell VM [2]; library: Prestwick): inactive: 0

Cc1cc(O)c(C(=O)N[C@@H](C(=O)N[C@@H]2C(=O)N3C(C(=O)O)=C(CSc4nnnn4C)CS[C@H]23)c2ccc(O)cc2)cn1
neuronal differentiation score (ReNCell VM [1]; library: Spectrum): inactive: 0 | dopaminergic neuron differentiation score (ReNCell VM [2]; library: Spectrum): inactive: 0

O=C(CCBr)N1CCN(C(=O)CCBr)CC1
neuronal differentiation score (ReNCell VM [1]; library: Spectrum): inactive: 0 | dopaminergic neuron differentiation score (ReNCell VM [2]; library: Spectrum): inactive: 0

CC(=O)OCC(COC(C)=O)OC(C)=O
neuronal differentiation score (ReNCell VM [1]; library: Spectrum): inactive: 0 | dopaminergic neuron differentiation score (ReNCell VM [2]; library: Spectrum): inactive: 0

O=C1CCc2ccc(OCCCCN3CCN(c4cccc(Cl)c4Cl)CC3)cc2N1 [Aripiprazole]
neuronal differentiation score (ReNCell VM [1]; library: Prestwick): inactive: 0 | dopaminergic neuron differentiation score (ReNCell VM [2]; library: Prestwick): inactive: 0

COc1ccccc1CNCCCCCCNCCCCCCCCNCCCCCCNCc1ccccc1OC [Methoctramine tetrahydrochloride]
neuronal differentiation score (ReNCell VM [1]; library: LOPAC): inactive: 0 | dopaminergic neuron differentiation score (ReNCell VM [2]; library: LOPAC): inactive: 0

CC1CCN(CCCC(=O)c2ccc(F)cc2)CC1
neuronal differentiation score (ReNCell VM [1]; library: Spectrum): inactive: 0 | dopaminergic neuron differentiation score (ReNCell VM [2]; library: Spectrum): inactive: 0

COc1cc2ncnc(Nc3ccc(Cl)cc3F)c2cc1OC
neuronal differentiation score (ReNCell VM [1]; library: Tocriscreen): inactive: 0 | dopaminergic neuron differentiation score (ReNCell VM [2]; library: Tocriscreen): inactive: 0

O=C(Cc1ccc(Cl)c(Cl)c1)OCCN1CCCC1 [AC 915 oxalate]
neuronal differentiation score (ReNCell VM [1]; library: LOPAC): inactive: 0 | dopaminergic neuron differentiation score (ReNCell VM [2]; library: LOPAC): inactive: 0

C#C[C@]1(O)CC[C@H]2[C@@H]3CCc4cc(OC5CCCC5)ccc4[C@H]3CC[C@@]21C
neuronal differentiation score (ReNCell VM [1]; library: Spectrum): inactive: 1 | dopaminergic neuron differentiation score (ReNCell VM [2]; library: Spectrum): inactive: 0

COC[C@@H]1Cc2cc(OC)c3c(c2[C@H](c2ccc(OC)c(OC)c2)[C@H]1COC)OCO3 [hypophyllanthin]
neuronal differentiation score (ReNCell VM [1]; library: Natural): inactive: 0 | dopaminergic neuron differentiation score (ReNCell VM [2]; library: Natural): inactive: 0

CCCCNc1cc(C(=O)O)cc(S(N)(=O)=O)c1Oc1ccccc1
neuronal differentiation score (ReNCell VM [1]; library: Spectrum): inactive: 0 | dopaminergic neuron differentiation score (ReNCell VM [2]; library: Spectrum): inactive: 0

O=C1NCC2(CCN(CCc3ccccc3)CC2)O1
neuronal differentiation score (ReNCell VM [1]; library: Spectrum): inactive: 0 | dopaminergic neuron differentiation score (ReNCell VM [2]; library: Spectrum): inactive: 0

O=C([O-])[C@H]1/C(=C/CO)O[C@@H]2CC(=O)N21.[Li+]
neuronal differentiation score (ReNCell VM [1]; library: Spectrum): inactive: 0 | dopaminergic neuron differentiation score (ReNCell VM [2]; library: Spectrum): inactive: 0

Cc1c(C)c2c(c(C)c1O)CC[C@@](C)(CCC[C@H](C)CCC[C@H](C)CCCC(C)C)O2 (racemic) [Tocopherol (R,S)]
neuronal differentiation score (ReNCell VM [1]; library: Phytochemical): inactive: 0 | dopaminergic neuron differentiation score (ReNCell VM [2]; library: Phytochemical): inactive: 0

COc1cc2c(cc1OC)C1C(=O)c3c(O)cc4c(c3OC1CO2)C=CC(C)(C)O4 (stereo not drawn) [alpha-TOXICAROL (dl)]
neuronal differentiation score (ReNCell VM [1]; library: Spectrum): inactive: 0 | dopaminergic neuron differentiation score (ReNCell VM [2]; library: Spectrum): inactive: 0

CC12CCC(CC1)C(C)(C)O2
neuronal differentiation score (ReNCell VM [1]; library: Spectrum): inactive: 0 | dopaminergic neuron differentiation score (ReNCell VM [2]; library: Spectrum): inactive: 0

O=C(O)Cc1cc(I)c(Oc2ccc(O)c(I)c2)c(I)c1 [Tiratricol, 3,3',5-triiodothyroacetic acid]
neuronal differentiation score (ReNCell VM [1]; library: Prestwick): inactive: 0 | dopaminergic neuron differentiation score (ReNCell VM [2]; library: Prestwick): inactive: 0

COC(=O)C1=C(C)NC(C)=C(C(=O)OCCCN2CCC(c3ccccc3)(c3ccccc3)CC2)[C@H]1c1cccc([N+](=O)[O-])c1 [(S)-(+)-Niguldipine hydrochloride]
neuronal differentiation score (ReNCell VM [1]; library: Tocriscreen): inactive: 0 | dopaminergic neuron differentiation score (ReNCell VM [2]; library: Tocriscreen): inactive: 0

CCN(CC)CCCC(C)Nc1nc(C)cc(Nc2ccc3nc(C)cc(N)c3c2)n1 (centres undefined)
neuronal differentiation score (ReNCell VM [1]; library: Tocriscreen): inactive: -3 | dopaminergic neuron differentiation score (ReNCell VM [2]; library: Tocriscreen): inactive: 0

COc1ccccc1N1CCN(CCN2C(=O)c3ccccc3C(C)(C)C2=O)CC1 [ARC 239 dihydrochloride]
neuronal differentiation score (ReNCell VM [1]; library: Tocriscreen): inactive: 0 | dopaminergic neuron differentiation score (ReNCell VM [2]; library: Tocriscreen): inactive: 0

COC(=O)Nc1nc2ccc(SC(C)C)cc2[nH]1 [Methiazole]
neuronal differentiation score (ReNCell VM [1]; library: Prestwick): inactive: 0 | dopaminergic neuron differentiation score (ReNCell VM [2]; library: Prestwick): inactive: 0

Cc1[nH]c(=O)c(C#N)cc1-c1ccncc1
neuronal differentiation score (ReNCell VM [1]; library: Spectrum): inactive: 1 | dopaminergic neuron differentiation score (ReNCell VM [2]; library: Spectrum): inactive: 0

COc1cc2ncnc(Nc3ccc(F)c(Cl)c3)c2cc1OCCCN1CCOCC1 [Iressa]
neuronal differentiation score (ReNCell VM [1]; library: Tocriscreen): inactive: 0 | dopaminergic neuron differentiation score (ReNCell VM [2]; library: Tocriscreen): inactive: 0

COC(=O)C1C(=O)C(C(=O)C=Cc2ccco2)C(=O)CC1(C)C (centres undefined)
neuronal differentiation score (ReNCell VM [1]; library: Natural): inactive: -1 | dopaminergic neuron differentiation score (ReNCell VM [2]; library: Natural): inactive: 1
